This series has as its system Dogs. Briefly: Global ischemia (clamping the ascending aorta), protection of CA1 neurons. To be noted: iv.

Regarding `NCC(=O)NC(Cc1ccccc1)c1ccccc1` (centres unmarked) [Compound B, 2-amino-N-(1,2-diphenylethyl)acetamide], where the note is “toxic dose for convulsions / active dose”, the “therapeutic range (convulsive index)” value is given as “about 8.8”. In addition, the “therapeutic range (preictal behavioural index)” value (toxic dose for preictal behaviour / active dose) is reported as “about 8.8”.

The values are drawn from EP0427427A2, “Use of arylalkylamides in the treatment of neurodegenerative diseases” (FISONS CORPORATION, priority 1989, dated 1991).
